Values are relative to the signal before dosing, not to a vehicle control; the signal also falls without drug.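 Fibroblast labels name human fibroblasts: mostly primary ones from tissues such as uterus (C12385, HUF), lung (H6013), bone (Hs27A), adrenal (HADF) and skin (WS1), plus mammary HMF and breast cancer-associated Hs343T. The cancer cells are basal-like or mesenchymal-like triple-negative breast cancer lines. The paper calls a changed response a hit when it shifts by more than 3x the replicate standard deviation. The tissue of the other fibroblasts is not given here.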
System: Hs578T
Experiment: relative JC-1 red fluorescence (viability) vs pre-drug, coculture with fibroblast (fraction); higher = more viable cancer cells
Description: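 JC-1 labelled TNBC cells cocultured 1:1 (1,500 cells each) with CellTrace Violet stained primary or stromal fibroblasts in 384-well plates in FluoroBrite medium, treated with one of 42 anticancer drugs at 0.1, 1, 10 or 100 uM. JC-1 red fluorescence (mitochondrial integrity in cancer cells only) was read by plate reader every 8 h for 72 h. Values are normalised to each well's pre-drug value. The stock of one drug was tenfold lower, so its dose labels may be too high.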

Nc1ncn([C@@H]2O[C@H](CO)[C@@H](O)[C@H]2O)c(=O)n1 [Azacitidine]
relative JC-1 red fluorescence
Conditions	8 h	16 h	24 h	32 h	40 h	48 h	56 h	64 h	72 h
10 µM	0.88	0.806	0.766	0.723	0.662	0.621	0.595	0.56	0.557
100 µM	0.837	0.742	0.6994	0.6856	0.638	0.606	0.595	0.562	0.553

relative JC-1 red fluorescence
Conditions	8 h	16 h	24 h	32 h	40 h	48 h	56 h	64 h	72 h
10 µM, coculture fibroblast: C12385	0.786	0.7109	0.653	0.58	0.512	0.48	0.451	0.426	0.407
10 µM, coculture fibroblast: H6013	0.808	0.772	0.737	0.694	0.6546	0.6308	0.608	0.596	0.574
10 µM, coculture fibroblast: H6019	0.776	0.734	0.721	0.634	0.605	0.595	0.577	0.576	0.561
10 µM, coculture fibroblast: H6076	0.8481	0.7912	0.7662	0.755	0.711	0.711	0.694	0.689	0.688
10 µM, coculture fibroblast: H6231	0.9152	0.8441	0.803	0.752	0.693	0.657	0.606	0.578	0.551
10 µM, coculture fibroblast: HADF	0.874	0.855	0.836	0.8	0.774	0.751	0.73	0.721	0.697
10 µM, coculture fibroblast: HCFa	0.797	0.7509	0.715	0.663	0.613	0.6	0.579	0.5695	0.5395
10 µM, coculture fibroblast: HCPF	0.885	0.809	0.772	0.737	0.678	0.651	0.625	0.582	0.555
10 µM, coculture fibroblast: HHSteC	0.832	0.7828	0.7518	0.708	0.657	0.632	0.607	0.587	0.558
10 µM, coculture fibroblast: HMF	0.8657	0.797	0.7598	0.7385	0.6828	0.656	0.6259	0.5982	0.573
10 µM, coculture fibroblast: HPFa	0.866	0.822	0.77	0.709	0.671	0.642	0.614	0.598	0.567
10 µM, coculture fibroblast: HUF	0.853	0.7512	0.76	0.668	0.616	0.586	0.547	0.533	0.517
10 µM, coculture fibroblast: Hs27A	0.882	0.828	0.8	0.768	0.717	0.7	0.677	0.671	0.624
10 µM, coculture fibroblast: Hs343T	0.8952	0.79641	0.7657	0.7473	0.685	0.6609	0.633	0.599	0.581
10 µM, coculture fibroblast: WS1	0.787	0.69	0.672	0.597	0.546	0.526	0.499	0.492	0.484
100 µM, coculture fibroblast: C12385	0.799	0.673	0.635	0.57	0.5274	0.498	0.4723	0.46	0.449
100 µM, coculture fibroblast: H6013	0.777	0.722	0.702	0.697	0.664	0.658	0.635	0.633	0.614
100 µM, coculture fibroblast: H6019	0.746	0.679	0.68	0.595	0.56	0.549	0.541	0.539	0.54
100 µM, coculture fibroblast: H6076	0.8386	0.717	0.688	0.664	0.623	0.619	0.586	0.569	0.561
100 µM, coculture fibroblast: H6231	0.853	0.756	0.714	0.687	0.637	0.614	0.57	0.546	0.523
100 µM, coculture fibroblast: HADF	0.855	0.76	0.722	0.689	0.666	0.652	0.619	0.607	0.585
100 µM, coculture fibroblast: HCFa	0.794	0.763	0.744	0.711	0.668	0.657	0.623	0.614	0.592
100 µM, coculture fibroblast: HCPF	0.878	0.788	0.7557	0.7362	0.6907	0.6658	0.65	0.612	0.587
100 µM, coculture fibroblast: HHSteC	0.818	0.7722	0.735	0.705	0.65	0.613	0.588	0.575	0.548
100 µM, coculture fibroblast: HMF	0.812	0.747	0.715	0.708	0.663	0.652	0.624	0.5978	0.584
100 µM, coculture fibroblast: HPFa	0.8564	0.783	0.738	0.694	0.665	0.647	0.61	0.591	0.563
100 µM, coculture fibroblast: HUF	0.835	0.686	0.72356	0.643	0.6008	0.57587	0.544	0.535	0.527
100 µM, coculture fibroblast: Hs27A	0.867	0.829	0.794	0.78	0.745	0.751	0.72	0.709	0.652
100 µM, coculture fibroblast: Hs343T	0.8754	0.7617	0.699	0.688	0.633	0.604	0.564	0.534	0.513
100 µM, coculture fibroblast: WS1	0.788	0.7106	0.6813	0.598	0.546	0.521	0.488	0.476	0.463

Source: the supplement of paper PMC6078165
